Assay results: PubChem BioAssay AID1347075 (National Center for Advancing Translational Sciences (NCATS), 2019)
Values joined by “and” are separate entries in the source; they are usually repeats but may differ in a detail not shown here. Equal entries are not always repeated. In all, about 400,000 compounds went through this assay and about 5,500 (1.4%) were called active. The shares of active, inactive and inconclusive entries below differ from those in the screen. Calls follow the shape of the dose curve; as a rule, active = well fitted cell-killing curve with a large enough effect; inconclusive = small, poorly fitted or top-dose-only effect, or effect the other way; inactive = flat fitted curve, though single readings scatter. Potencies beside an inconclusive call are fits to weak or partial responses and may not hold up.

Assay: qHTS assay for MDR1-selective chemotherapeutics: Primary screen using the parental adenocarcinoma cell KB-3-1; also: nearly all actives have a fitted effect of over 60% in size
Settings: KB-3-1 viability, CellTiter-Glo ATP luminescence, 72 h; activity change, negative = cytotoxic: at 46.1 µM (top of the series)
How it was run: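 Cells are dispensed, compounds pinned in, plates held at 37 °C for 72 h, then CellTiter-Glo is added and luminescence read after 10 minutes. Cell line: parental KB-3-1 in phenol-red-free DMEM, 10% FBS.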
% is scaled to controls: 0 for no effect and ±100 for the full control effect; potency is read from the fitted curve at half-maximal effect.

Row | SMILES | Potency | activity change, negative = cytotoxic
1 | COC(=O)c1sc(SC)nc1N | inconclusive: 2.06 µM [cytotoxic, partial curve, poor fit] | –
2 | Cn1c(=O)c(=O)n(C)c2cc(S(=O)(=O)N3CCN(c4ccccc4F)CC3)ccc21 | inconclusive: 20.6 µM [cytotoxic, single point] | –
3 | Cc1ccc(-n2[nH]c(C)c(C=Nc3ccc4[nH]c(=O)[nH]c4c3)c2=O)cc1 | active: 20.6 µM | –
4 | O=C(Nc1ccc(F)c(Cl)c1)C1Cc2c(-c3ccc(Cl)cc3)ccnc2O1 (configuration not stated) | inconclusive: 29.1 µM [cytotoxic, single point] | –
5 | COc1ccccc1NC(=O)CCN1CCC(C(N)=O)CC1 | inconclusive: 0.082 µM [rising, full curve] | –
6 | CC(=O)c1ccc(NS(=O)(=O)c2cc(-c3cc(C)no3)ccc2C)cc1 | inconclusive: 3.66 µM [cytotoxic, full curve, poor fit] | –
7 | CC1(C)Cc2c(C#N)c(SCC(=O)c3ccccc3)nc(N3CCOCC3)c2CO1 | inconclusive: 20.6 µM [cytotoxic, single point] | –
8 | CC(C)OC(=O)CSc1nc(Cc2cccs2)nc2ccccc12 | – | inconclusive: -6.64%
9 | CCCNC(=O)CCNS(=O)(=O)c1ccc2c(c1)c(=O)n(C)c(=O)n2C | inactive | –
10 | Cc1ccccc1N1CCN(C2CCCN(C(=O)c3cc(C(C)C)[nH]n3)C2)CC1 (configuration not stated) | inconclusive: 29.1 µM [cytotoxic, single point] | –
11 | Cc1ccc(OCc2cc(C(=O)NC(C)Cc3cccc(C)n3)no2)cn1 (configuration not stated) | inconclusive: 18.4 µM [cytotoxic, single point] | –
12 | COc1ccc(NC(=O)COC(=O)c2c(NC(C)=O)sc(C)c2C)cc1 | inconclusive: 29.1 µM [cytotoxic, single point] | –
13 | CCCCn1c(-c2nonc2NC(=O)c2ccccc2Cl)nc2ccccc21 | active: 3.26 µM | –
14 | Cc1cc(C(F)(F)F)n2nc(-c3cccs3)cc2n1 | inconclusive: 20.6 µM [cytotoxic, single point] | –
15 | O=C1CC(c2ccccc2)CN1Cc1ccccc1 (configuration not stated) | inconclusive: 35.5 µM [cytotoxic, single point] | –
16 | CCOc1[nH]c(/N=C/c2ccccc2)c(C#N)c1C#N | inconclusive: 0.0065 µM [rising, full curve] | –
17 | CCN(CC)c1ccc(NC(=O)c2ccc3c(c2)OCO3)cc1 | inconclusive: 16.4 µM [cytotoxic, single point] | –
18 | CCCCCCn1c(N2CCN(c3ccccc3)CC2)nc2c1c(=O)[nH]c(=O)n2C | inconclusive: 29.1 µM [cytotoxic, single point] | –
19 | CN(CCN(C)C(=O)c1[nH]cnc1C(=O)Nc1ccccc1)C(=O)c1[nH]cnc1C(=O)Nc1ccccc1 | – | inconclusive: 34%
20 | Cc1ccc(C(=O)OCC(=O)Nc2ccc3c(c2)OCO3)c(O)c1 | inactive | –
21 | COc1cc(C(=O)n2nc(-c3ccco3)nc2NCc2ccc(Cl)cc2)cc(OC)c1OC | inactive | –
22 | COc1ccc(-c2cc(NC=O)c3ncc(-c4cccc(C(F)(F)F)c4)n3c2)cc1OC | inconclusive: 29.1 µM [cytotoxic, single point] | –
23 | COCc1cccc(-c2csc(C(C)(NC(C)=O)c3ccccc3)n2)c1 (configuration not stated) | inactive | –
24 | O=C(Nc1ccc2c(c1)OCO2)C1Cc2c(-c3ccncc3)ccnc2O1 (configuration not stated) | inactive | –

Row | SMILES | Potency | activity change, negative = cytotoxic
25 | COc1ccc(C(=O)NCC(c2ccc(N(C)C)cc2)N2CCCC2)c(OC)c1 (configuration not stated) | inactive | –
26 | COc1ccc2sc(N(CCCN(C)C)C(=O)c3ccc(S(=O)(=O)N4CCc5ccccc5C4)cc3)nc2c1 | inconclusive: 18.4 µM [cytotoxic, single point] | –
27 | O=C1NC(=S)S/C1=C\c1cc(Cl)ccc1Cl | inconclusive: 20.6 µM [cytotoxic, partial curve] | –
28 | Nc1ncnc(N2CCc3ccccc32)c1[N+](=O)[O-] | inconclusive: 29.1 µM [cytotoxic, single point] | –
29 | Cc1cc2oc(=O)c(CC(=O)NCCCO)c(C)c2c2occ(C(C)(C)C)c12 | inactive | –
30 | CCCCN(C)Cc1c(O)ccc2c(-c3ccccc3)cc(=O)oc12 | inconclusive: 25.9 µM [cytotoxic, single point] | –
31 | CSc1nc(N)c(C(=O)N(c2ccccc2)c2ccccc2)s1 | inactive | –
32 | CCc1nc2ccccc2c(C(=O)OCc2nc3ccccc3c(=O)[nH]2)c1C | inconclusive: 25.9 µM [cytotoxic, single point] | –
33 | COc1cc(/C=N/NC(=O)CNC(=O)c2ccccc2)ccc1OC(=O)c1cccs1 | inactive | –
34 | CCc1nc(SCC(=O)c2ccc(Cl)s2)c2oc3ccccc3c2n1 | inactive | –
35 | COc1ccc(-c2nnc3ccc(SCC(=O)N4CCCCCC4)nn23)cc1OC | inactive | –
36 | COC(=O)c1cccc(S(=O)(=O)N2CCCC2)c1 | inactive | –
37 | Cn1c2ccccc2c2c(C(=O)N3CCN(c4ccc(F)cc4)CC3)cn(C3CCCC3)c(=O)c21 | inconclusive: 23.1 µM [cytotoxic, single point] | –
38 | Cc1cc(C)n(CC(=O)N2c3ccccc3Sc3ccccc32)n1 | inactive | –
39 | CC1(C)NC(=O)N(CC(=O)OCC(=O)Nc2c(Br)cc([N+](=O)[O-])cc2Br)C1=O | inactive | –
40 | COc1ccccc1NC(=O)Cc1nn(C)c(=O)c2ccccc12 | inconclusive: 9.2 µM [cytotoxic, partial curve] | –
41 | Cc1ccc(O)c(CP(=O)(c2ccccc2)c2ccccc2)c1 | inactive | –
42 | COc1ccc(/C=C2\CC/C(=C\c3ccc(OC)c(OC)c3)C2=O)cc1OC | active: 18.4 µM | –
43 | COC(=O)c1ccccc1NC(=O)c1ccc2c(c1)OCCCO2 | inactive | –
44 | CCCc1cc(-c2[nH]ncc2-c2ccc3c(c2)OCCCO3)c(O)cc1O | inconclusive: 20.6 µM [cytotoxic, single point] | –
45 | O=C(CN1C(=O)/C(=C/c2ccc(Cl)cc2)SC1=S)NC1C=CS(=O)(=O)C1 (configuration not stated) | inactive | –
46 | CC(C)=CCCC1(C)C=Cc2c(ccc3c2[nH]c2cc(O)c(C)cc23)O1 (configuration not stated) | inconclusive: 29.1 µM [cytotoxic, single point] | –
47 | COc1ccc(CNS(=O)(=O)c2ccc3c(c2)N(C(C)=O)CC(C)S3)cc1 (configuration not stated) | inconclusive: 16.4 µM [cytotoxic, single point] | –
48 | CCOc1ccc(C(=O)NCc2ccc3c(c2)CCN3C(=O)c2ccccc2)cc1 | inconclusive: 29.1 µM [cytotoxic, single point] | –

Grouped by structure: those above containing a cyano group.
Row | SMILES | Potency | activity change, negative = cytotoxic
7 | CC1(C)Cc2c(C#N)c(SCC(=O)c3ccccc3)nc(N3CCOCC3)c2CO1 | inconclusive: 20.6 µM [cytotoxic, single point] | –
16 | CCOc1[nH]c(/N=C/c2ccccc2)c(C#N)c1C#N | inconclusive: 0.0065 µM [rising, full curve] | –

As entered above.
`COc1ccc(-c2nnc3ccc(SCC(=O)N4CCCCCC4)nn23)cc1OC` | Potency: inactive
`Nc1ncnc(N2CCc3ccccc32)c1[N+](=O)[O-]` | Potency: inconclusive: 29.1 µM [cytotoxic, single point]

(list continues)

Row | SMILES | Potency | activity change, negative = cytotoxic
49 | CSc1ccc(Cn2c(C)c(C(=O)NCCC#N)sc2=O)cc1 | inconclusive: 29.1 µM [cytotoxic, single point] | –
50 | CC(C)(C)c1nnc(NC(=O)Cc2ccccc2[N+](=O)[O-])s1 | – | inconclusive: 16.2%
51 | Cn1c(=O)n(C)c2cc([N+](=O)[O-])c(N3CCN(S(=O)(=O)c4ccc(C(C)(C)C)cc4)CC3)cc21 | inactive | –
52 | CCOC(=O)CN1C(=O)c2ccccc2Sc2ncccc21 | inconclusive: 0.0651 µM [rising, full curve] | –
53 | O=C(C1CCN(Cc2ccc(F)cc2)CC1)N(CCc1ccccc1)Cc1ccccc1 | active: 16.4 µM | –
54 | CCOc1cc2[nH]c(=S)n(CCCN3CCOCC3)c(=O)c2cc1OCC | inactive | –
55 | Nc1ccc(N2CCCCC2)c(S(=O)(=O)Nc2ccccc2Cl)c1 | inactive | –
56 | COc1ccc(C)cc1NC(=O)CN(c1ccccc1)S(=O)(=O)N(C)C | inactive | –
57 | CC(=O)/C(=N\Nc1ccc(C)cc1)N1CCOCC1 | inactive | –
58 | CCn1c(=O)c(C(=O)CN(C)CC(=O)Nc2cccc(F)c2)c(N)n(Cc2ccccc2)c1=O | inconclusive: 16.4 µM [cytotoxic, single point] | –
59 | O=C(c1ccco1)N1CCN(c2ncnc3c2[nH]c2ccc(Br)cc23)CC1 | inconclusive: 29.1 µM [cytotoxic, single point] | –
60 | CCn1c(COc2ccc(Cl)cc2)nnc1SC1CCc2ccccc2C1=O (configuration not stated) | inactive | –
61 | CC(=O)Nc1ccc(NC(=O)COc2ccc(-c3ccc(C#N)cc3)cc2)cc1 | inactive | –
62 | CSCC[C@H](NC(=O)OC(C)(C)C)c1nnc(SCC(=O)N(C)C)o1 | inactive | –
63 | CCN(CC)S(=O)(=O)c1ccc(C)c(NC(=O)CSc2nnnn2C)c1 | inconclusive: 9.2 µM [cytotoxic, partial curve, poor fit] | –
64 | O=C1CCN(CCc2ccccc2)CCN1[C@H](CSc1ccccc1)Cc1ccccc1 | inconclusive: 29.1 µM [cytotoxic, single point] and inconclusive: 8.2 µM [cytotoxic, single point] | –
65 | Cc1cc(C)cc(N(CC(=O)NCCSc2ccccn2)S(=O)(=O)c2ccccc2)c1 | inconclusive: 16.4 µM [cytotoxic, partial curve, poor fit] | –
66 | COc1ccc(C(=O)N(CCc2ccccc2)Cc2cccs2)c(OC)c1 | inconclusive: 29.1 µM [cytotoxic, single point] | –
67 | CC(=O)c1c(C)[nH]c(C(=O)Nc2nc(-c3ccc(-c4ccccc4)cc3)cs2)c1C | active: 14.6 µM | –
68 | Fc1ccc(-c2n[nH]c(=S)n2-c2ccc3c(c2)OCCO3)cc1 | inactive | –
69 | CCCOc1ccc(C(=O)Nc2cccc(NC(=O)c3cccc(Cl)c3)c2)cc1 | inconclusive: 14.6 µM [rising, partial curve, poor fit] | –
70 | Nc1nc(Nc2ccc(Cl)cc2)nc(NCc2ccco2)c1[N+](=O)[O-] | inactive | –
71 | CN1CC(c2ccccc2Cl)C2(COc3ccccc3C2=O)C12C(=O)Nc1ccccc12 (configuration not stated) | inconclusive: 29.1 µM [cytotoxic, single point] | –
72 | CC(C)(C)OC(=O)N1CCC[C@H]1C(=O)N1CCC[C@H]1C(=O)NCc1ccncc1 | – | inconclusive: 18.7%
